This is one part of the list. Further columns of the screen follow, without active or inactive calls. The list favours compounds with an active or inconclusive main result. Words in brackets tell the shape of the fitted curve; partial curves, single points and poor fits give uncertain potencies.
Test: qHTS Assay to Find Inhibitors of Chronic Active B-Cell Receptor Signaling
Conditions: ABC-DLBCL IkBa-CBG/CBR reporter, luminescence ratio (green luciferase fused to IkBa over red control in TMD8 lymphoma cells), 4 h
Procedure, shortened: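 Doxycycline induced both beetle luciferases in TMD8 lymphoma cells; IKK-driven degradation limits the IkappaBalpha-fused green signal, while red luminescence normalises for cell number and nonspecific effects. Compounds tested up to 46 uM, 4 hrs.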

[1] = measured here: CBR red luminescence, cell number
[2] = measured here: IkBa-CBG green luminescence

Compound | AC50 [1] | AC50 [2]
N#CC1=C(O)CCCn2c1nc1ccccc1c2=O | 35.5 µM [falling, single point] | 
CC(C)S(=O)(=O)c1csc(NC(=O)Nc2ccc(Cl)cc2)c1 | 5.01 µM [falling, full curve] | 
O=C(Nc1cc(Cl)ccc1-n1cncn1)c1cc(F)c(F)c(F)c1F | 10.3 µM [falling, partial curve, poor fit] | 10.3 µM [rising, partial curve, poor fit]
O=C(c1ccco1)N1CCN(S(=O)(=O)c2ccccc2[N+](=O)[O-])CC1 | 0.316 µM [rising, full curve, poor fit] | 
COc1c(Br)cc2c(C)c(C(=O)N3CCOCC3)oc2c1Br | 0.0146 µM [rising, full curve, poor fit] | 
CN(CCC1CCCCO1)C(=O)CCc1nnc(CCc2ccccc2)o1 (centres undefined) | 0.501 µM [rising, partial curve, poor fit] | 
Cc1cc2nc(CSc3ccc(Cl)cc3)cc(=O)n2[nH]1 | 10 µM [falling, single point] | 
CCc1cccc(NC(=O)Cn2c(=O)n(Cc3ccccc3)c(=O)c3c(C)c(C(=O)N(C)C)sc32)c1 | 12.6 µM [falling, single point] | 
Cn1c(CCN2CCCC2)nc2cc(NS(=O)(=O)c3ccc(Cl)cc3)ccc21 | 14.1 µM [falling, partial curve] | 
COc1ccc(CCN2C(=O)c3[nH]nc(-c4ccccc4O)c3C2c2ccc(C)cc2)cc1OC (centres undefined) | 29.1 µM [falling, single point] | 
CCN(CC(=O)Nc1cccc(OC)c1)C(=O)c1cccc(S(=O)(=O)N2CCc3ccccc32)c1 | 0.146 µM [falling, full curve, poor fit] | 
O=C(c1ccccc1)c1ccc2n1CCC2C(=O)O (centres undefined) | 4.61 µM [rising, full curve, poor fit] | 
Cc1ccc(-c2[nH]n3c(=O)c4c(nc3c2C)CCCC4)cc1 | 1.58 µM [rising, full curve, poor fit] | 
Cc1ccc2nsnc2c1S(=O)(=O)N1CCN(Cc2ccc3c(c2)OCO3)CC1 | 0.326 µM [rising, full curve] | 
COc1ccc(CN2C(=O)NC(C)(c3ccc(C)cc3)C2=O)cc1F (centres undefined) | 15.8 µM [falling, single point] | 
Cc1cccc(NC(=O)CS(=O)(=O)c2cn(CC(=O)N3CCOCC3)c3ccccc23)c1 | 12.6 µM [falling, partial curve] | 

Compound | AC50 [1] | AC50 [2]
NS(=O)(=O)c1ccc(CNC(=O)/C=C/c2ccc(S(=O)(=O)N3CCOCC3)cc2)cc1 | 35.5 µM [falling, partial curve, poor fit] | 
CCOC(=O)c1c(C)[nH]c(C(=O)NNC(=O)c2ccc(C(C)(C)C)cc2)c1C | 2.59 µM [falling, partial curve, poor fit] | 
COCCNc1oc(-c2ccc(Cl)cc2)nc1C#N | 10 µM [rising, partial curve, poor fit] | 
COc1ccccc1N1CCN(C(=O)C2Cc3ccccc3CN2C(=O)c2ccco2)CC1 (centres undefined) | 29.1 µM [falling, single point] | 
O=C(O)c1ccc2c(c1)C(=O)/C(=C\c1ccco1)C2=O | 8.91 µM [falling, partial curve] | 
CC(C)(C)NC(=O)/C(=C\c1ccccc1F)NC(=O)c1ccc([N+](=O)[O-])cc1 | 7.94 µM [rising, partial curve, poor fit] | 
Cc1cc(C(=O)NNC(=O)c2cccc([N+](=O)[O-])c2)n[nH]1 | 23.1 µM [falling, single point] | 
O=C(Nc1nnc(Cc2ccc(Cl)cc2)s1)c1cccs1 | 20.6 µM [rising, single point] | 
CCCNC(=O)COC(=O)c1ccccc1C(=O)c1ccc(Cl)c([N+](=O)[O-])c1 | 11.2 µM [falling, partial curve] | 7.08 µM [rising, partial curve, poor fit]
NS(=O)(=O)c1ccc(NC(=O)CSc2nnc(Cc3cccs3)n2-c2ccccc2)cc1 | 1.46 µM [falling, partial curve, poor fit] | 
COc1cc(C(=O)OCC(=O)NC23CC4CC(CC(C4)C2)C3)cc(OC)c1OC | 4.61 µM [rising, single point] | 
Cc1ccc(C(=O)CC2SC(N)=NC2=O)cc1 (centres undefined) | 9.2 µM [rising, partial curve, poor fit] | 
O=C(NN=C1CCN(Cc2ccccc2)CC1)c1ccccc1O | 2.24 µM [falling, full curve] | 
CCOC(=O)c1c[nH]n(-c2ccccc2)c1=O | 8.91 µM [falling, partial curve, poor fit] | 
Cc1ccc(CN2C(=O)C(=O)c3cc(C)ccc32)cc1 | 20.6 µM [rising, partial curve] | 23.1 µM [falling, single point]

Grouped by structure, those above containing an aryl thioether with sulfur outside any ring
Compound | AC50 [1] | AC50 [2]
Cc1cc2nc(CSc3ccc(Cl)cc3)cc(=O)n2[nH]1 | 10 µM [falling, single point] | 
NS(=O)(=O)c1ccc(NC(=O)CSc2nnc(Cc3cccs3)n2-c2ccccc2)cc1 | 1.46 µM [falling, partial curve, poor fit] | 
